No constants are given. Whether binding was seen depends on the method and setting. In cells and extracts the contact can be indirect. Some results given as binding are weak or reduced against the parent protein; the word gives no strength.
Target: angiotensin II type 1 receptor, C-terminally Rluc-fused (AT1R-Rluc) (UniProt P30556)
Test: FRET or BRET; real-time BRET kinetics in live HEK293 cells co-expressing AT1R-Rluc (donor) with Venus-Gαq or yPET-β-arrestin 2 (acceptor); 37°C, PBS, Coelenterazine-H 5 µM; cells stimulated with AngII (10 nM), LVV-H7 (10 μM) or their combination, up to 30 min

yPET-tagged β-arrestin 2 (from UniProt P32121 1-409)
binding: binds
